No constants are given. Whether binding was seen depends on the method and setting. In cells and extracts the contact can be indirect. A result given as binding can be weak or reduced; the word gives no strength.
Columns and labels:
[1] = target: RbAp46/48^LIN-53 (C. elegans) (UniProt P90916); test: co-IP
HAT-1 (C. elegans) = HAT-1 (C. elegans) (UniProt Q21484); test: co-IP

Sequences of proteins named here, by UniProt entry; tags and fusion partners are left off.
UniProt P90916: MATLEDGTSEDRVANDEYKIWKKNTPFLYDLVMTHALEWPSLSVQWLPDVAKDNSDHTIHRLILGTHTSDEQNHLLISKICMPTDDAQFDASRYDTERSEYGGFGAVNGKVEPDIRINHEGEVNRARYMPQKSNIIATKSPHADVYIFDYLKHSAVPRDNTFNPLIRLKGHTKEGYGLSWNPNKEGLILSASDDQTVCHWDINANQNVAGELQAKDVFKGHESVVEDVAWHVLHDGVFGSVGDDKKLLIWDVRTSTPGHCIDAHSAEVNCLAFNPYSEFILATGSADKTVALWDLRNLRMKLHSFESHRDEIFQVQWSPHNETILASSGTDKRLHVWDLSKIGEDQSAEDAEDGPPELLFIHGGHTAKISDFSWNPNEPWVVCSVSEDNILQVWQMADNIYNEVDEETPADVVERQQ

HAT-1 (from UniProt Q21484) (enzyme)
binding [1]: binds

RbAp46/48^LIN-53 (from UniProt P90916 1-417)
binding (HAT-1 (C. elegans)): binds

Reference: article doi:10.1101/2020.04.12.019257
